The supplement of paper PMC12819154, “High-throughput peptide-centric local stability assay extends protein–ligand identification to membrane proteins, tissues and bacteria” (Nature Structural & Molecular Biology, 2025)
Some of the results follow. Most entries show no effect beyond the scatter of the controls.

Sequences of proteins named here, by UniProt entry; tags and fusion partners are left off. A change or cut given only in a name is not applied to a line headed by its entry.
UniProt Q9ER69: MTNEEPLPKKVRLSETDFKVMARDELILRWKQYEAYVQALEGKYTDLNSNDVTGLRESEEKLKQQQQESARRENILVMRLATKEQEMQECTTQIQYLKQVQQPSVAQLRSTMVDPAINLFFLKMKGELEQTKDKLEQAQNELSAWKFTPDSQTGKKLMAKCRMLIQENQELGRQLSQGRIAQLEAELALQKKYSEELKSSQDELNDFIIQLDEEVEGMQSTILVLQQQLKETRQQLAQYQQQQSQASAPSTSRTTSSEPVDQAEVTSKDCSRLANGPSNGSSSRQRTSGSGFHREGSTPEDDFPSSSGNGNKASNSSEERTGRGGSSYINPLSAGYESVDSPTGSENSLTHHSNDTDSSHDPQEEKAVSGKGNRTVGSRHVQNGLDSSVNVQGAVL
UniProt Q9JIL4: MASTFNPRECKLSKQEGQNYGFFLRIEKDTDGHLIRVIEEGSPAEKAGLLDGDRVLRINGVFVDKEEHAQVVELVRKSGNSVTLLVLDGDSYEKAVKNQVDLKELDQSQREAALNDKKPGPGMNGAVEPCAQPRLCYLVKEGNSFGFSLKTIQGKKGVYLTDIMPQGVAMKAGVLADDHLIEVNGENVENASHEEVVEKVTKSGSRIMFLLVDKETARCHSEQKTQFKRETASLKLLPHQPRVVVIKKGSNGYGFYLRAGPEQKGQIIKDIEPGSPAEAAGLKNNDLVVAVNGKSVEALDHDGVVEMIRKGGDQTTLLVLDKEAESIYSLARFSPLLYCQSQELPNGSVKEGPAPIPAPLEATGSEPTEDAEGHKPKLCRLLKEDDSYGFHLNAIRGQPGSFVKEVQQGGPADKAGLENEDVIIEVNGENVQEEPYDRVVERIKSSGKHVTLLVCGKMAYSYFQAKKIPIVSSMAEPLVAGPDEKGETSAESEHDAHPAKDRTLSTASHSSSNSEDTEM
UniProt Q9JHS4, whole entry: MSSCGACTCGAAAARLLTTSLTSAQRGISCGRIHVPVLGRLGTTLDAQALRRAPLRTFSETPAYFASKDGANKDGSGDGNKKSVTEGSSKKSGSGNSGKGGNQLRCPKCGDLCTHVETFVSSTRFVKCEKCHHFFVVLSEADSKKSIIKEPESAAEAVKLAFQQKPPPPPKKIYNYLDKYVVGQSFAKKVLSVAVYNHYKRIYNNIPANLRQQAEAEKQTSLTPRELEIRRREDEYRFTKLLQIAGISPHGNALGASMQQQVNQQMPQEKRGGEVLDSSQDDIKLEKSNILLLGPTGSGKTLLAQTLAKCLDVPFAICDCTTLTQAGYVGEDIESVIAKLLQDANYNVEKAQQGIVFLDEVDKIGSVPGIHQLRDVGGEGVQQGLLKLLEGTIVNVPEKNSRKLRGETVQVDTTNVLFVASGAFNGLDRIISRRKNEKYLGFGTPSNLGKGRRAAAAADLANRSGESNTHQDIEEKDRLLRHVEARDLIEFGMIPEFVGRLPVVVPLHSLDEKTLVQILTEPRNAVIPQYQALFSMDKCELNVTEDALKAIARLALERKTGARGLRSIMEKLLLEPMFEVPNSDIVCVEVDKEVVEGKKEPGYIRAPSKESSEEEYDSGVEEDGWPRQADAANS
UniProt Q9JIX8: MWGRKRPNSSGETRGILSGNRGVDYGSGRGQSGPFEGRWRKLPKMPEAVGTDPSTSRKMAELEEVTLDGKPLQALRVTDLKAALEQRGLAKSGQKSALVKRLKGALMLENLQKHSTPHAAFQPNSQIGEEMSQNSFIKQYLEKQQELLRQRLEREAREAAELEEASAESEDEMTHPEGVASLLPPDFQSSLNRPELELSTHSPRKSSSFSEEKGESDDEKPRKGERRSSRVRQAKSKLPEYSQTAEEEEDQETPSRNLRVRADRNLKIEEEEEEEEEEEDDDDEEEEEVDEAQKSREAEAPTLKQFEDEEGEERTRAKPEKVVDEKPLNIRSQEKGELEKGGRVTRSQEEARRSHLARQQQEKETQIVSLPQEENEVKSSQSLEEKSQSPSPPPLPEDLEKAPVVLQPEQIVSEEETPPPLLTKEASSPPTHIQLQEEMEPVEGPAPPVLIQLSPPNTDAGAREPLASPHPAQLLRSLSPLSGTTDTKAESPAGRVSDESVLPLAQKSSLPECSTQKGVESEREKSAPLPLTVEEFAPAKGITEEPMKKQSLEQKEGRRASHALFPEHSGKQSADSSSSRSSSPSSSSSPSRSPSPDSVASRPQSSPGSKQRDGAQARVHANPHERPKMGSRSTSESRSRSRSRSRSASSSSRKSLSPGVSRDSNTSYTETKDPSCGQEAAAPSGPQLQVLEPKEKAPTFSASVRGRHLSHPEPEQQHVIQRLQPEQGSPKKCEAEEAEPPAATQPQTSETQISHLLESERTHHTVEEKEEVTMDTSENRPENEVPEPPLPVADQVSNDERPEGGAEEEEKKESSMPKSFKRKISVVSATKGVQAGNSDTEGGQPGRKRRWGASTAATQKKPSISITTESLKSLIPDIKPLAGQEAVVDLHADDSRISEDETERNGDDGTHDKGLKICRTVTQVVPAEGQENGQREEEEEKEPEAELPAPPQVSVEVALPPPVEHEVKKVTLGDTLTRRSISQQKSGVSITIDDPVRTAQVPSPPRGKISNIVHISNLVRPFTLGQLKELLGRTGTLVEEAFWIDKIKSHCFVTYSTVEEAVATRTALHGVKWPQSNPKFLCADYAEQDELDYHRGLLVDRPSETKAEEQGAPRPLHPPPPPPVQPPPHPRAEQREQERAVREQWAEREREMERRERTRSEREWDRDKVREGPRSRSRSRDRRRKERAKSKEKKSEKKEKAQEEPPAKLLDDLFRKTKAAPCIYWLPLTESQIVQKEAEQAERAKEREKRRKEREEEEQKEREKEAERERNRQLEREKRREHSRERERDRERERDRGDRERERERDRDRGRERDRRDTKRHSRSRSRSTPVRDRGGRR
UniProt Q9QXT0: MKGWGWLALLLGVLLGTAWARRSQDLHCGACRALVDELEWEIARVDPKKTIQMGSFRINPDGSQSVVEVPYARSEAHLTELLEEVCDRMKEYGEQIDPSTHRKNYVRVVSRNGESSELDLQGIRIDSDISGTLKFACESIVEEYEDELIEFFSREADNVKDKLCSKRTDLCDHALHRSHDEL
UniProt Q9JKC6: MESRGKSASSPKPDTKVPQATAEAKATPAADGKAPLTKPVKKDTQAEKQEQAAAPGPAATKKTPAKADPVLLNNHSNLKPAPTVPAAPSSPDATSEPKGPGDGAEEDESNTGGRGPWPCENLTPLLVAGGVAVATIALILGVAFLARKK
UniProt Q9DD06: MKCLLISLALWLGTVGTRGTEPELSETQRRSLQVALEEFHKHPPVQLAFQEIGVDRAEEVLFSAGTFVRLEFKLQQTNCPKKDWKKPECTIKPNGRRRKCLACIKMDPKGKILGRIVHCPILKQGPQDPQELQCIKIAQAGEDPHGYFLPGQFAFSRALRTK
UniProt Q9DCL9: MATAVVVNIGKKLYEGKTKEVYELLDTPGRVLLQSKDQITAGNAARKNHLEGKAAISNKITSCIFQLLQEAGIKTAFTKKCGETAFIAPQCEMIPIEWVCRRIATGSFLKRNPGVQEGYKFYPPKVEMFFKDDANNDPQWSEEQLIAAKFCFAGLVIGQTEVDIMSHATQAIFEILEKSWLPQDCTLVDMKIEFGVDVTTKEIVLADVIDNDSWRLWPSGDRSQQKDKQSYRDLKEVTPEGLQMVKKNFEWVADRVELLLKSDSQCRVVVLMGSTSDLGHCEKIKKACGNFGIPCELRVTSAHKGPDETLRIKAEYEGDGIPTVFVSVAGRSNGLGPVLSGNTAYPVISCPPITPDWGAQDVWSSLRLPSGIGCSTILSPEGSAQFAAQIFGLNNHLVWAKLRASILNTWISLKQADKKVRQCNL
UniProt Q9QY36: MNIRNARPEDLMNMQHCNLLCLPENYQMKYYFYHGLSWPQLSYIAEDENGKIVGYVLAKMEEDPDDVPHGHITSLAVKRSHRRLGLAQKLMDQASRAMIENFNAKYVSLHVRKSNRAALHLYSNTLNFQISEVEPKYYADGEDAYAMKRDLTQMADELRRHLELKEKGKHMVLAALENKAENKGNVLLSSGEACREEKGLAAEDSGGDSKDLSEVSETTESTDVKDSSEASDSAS
UniProt Q9JM62: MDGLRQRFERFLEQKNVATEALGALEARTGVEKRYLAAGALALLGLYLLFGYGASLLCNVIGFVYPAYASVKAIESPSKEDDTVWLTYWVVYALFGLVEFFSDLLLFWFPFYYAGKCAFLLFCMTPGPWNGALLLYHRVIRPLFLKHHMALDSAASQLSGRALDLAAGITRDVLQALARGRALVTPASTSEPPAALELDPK
UniProt Q9JM13, whole entry: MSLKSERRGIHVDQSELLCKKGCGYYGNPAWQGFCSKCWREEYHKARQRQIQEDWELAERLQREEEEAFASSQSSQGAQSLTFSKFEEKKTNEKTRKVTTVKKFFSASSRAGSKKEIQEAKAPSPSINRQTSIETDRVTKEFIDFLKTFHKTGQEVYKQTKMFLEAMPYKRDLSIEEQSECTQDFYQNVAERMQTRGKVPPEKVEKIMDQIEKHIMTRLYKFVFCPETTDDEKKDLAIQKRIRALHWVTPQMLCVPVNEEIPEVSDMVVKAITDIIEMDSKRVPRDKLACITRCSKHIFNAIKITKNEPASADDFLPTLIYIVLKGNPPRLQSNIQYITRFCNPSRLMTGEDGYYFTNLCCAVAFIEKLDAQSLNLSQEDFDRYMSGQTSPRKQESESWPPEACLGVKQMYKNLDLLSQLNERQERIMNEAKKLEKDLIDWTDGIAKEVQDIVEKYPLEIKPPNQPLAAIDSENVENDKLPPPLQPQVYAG
UniProt Q9EQJ9: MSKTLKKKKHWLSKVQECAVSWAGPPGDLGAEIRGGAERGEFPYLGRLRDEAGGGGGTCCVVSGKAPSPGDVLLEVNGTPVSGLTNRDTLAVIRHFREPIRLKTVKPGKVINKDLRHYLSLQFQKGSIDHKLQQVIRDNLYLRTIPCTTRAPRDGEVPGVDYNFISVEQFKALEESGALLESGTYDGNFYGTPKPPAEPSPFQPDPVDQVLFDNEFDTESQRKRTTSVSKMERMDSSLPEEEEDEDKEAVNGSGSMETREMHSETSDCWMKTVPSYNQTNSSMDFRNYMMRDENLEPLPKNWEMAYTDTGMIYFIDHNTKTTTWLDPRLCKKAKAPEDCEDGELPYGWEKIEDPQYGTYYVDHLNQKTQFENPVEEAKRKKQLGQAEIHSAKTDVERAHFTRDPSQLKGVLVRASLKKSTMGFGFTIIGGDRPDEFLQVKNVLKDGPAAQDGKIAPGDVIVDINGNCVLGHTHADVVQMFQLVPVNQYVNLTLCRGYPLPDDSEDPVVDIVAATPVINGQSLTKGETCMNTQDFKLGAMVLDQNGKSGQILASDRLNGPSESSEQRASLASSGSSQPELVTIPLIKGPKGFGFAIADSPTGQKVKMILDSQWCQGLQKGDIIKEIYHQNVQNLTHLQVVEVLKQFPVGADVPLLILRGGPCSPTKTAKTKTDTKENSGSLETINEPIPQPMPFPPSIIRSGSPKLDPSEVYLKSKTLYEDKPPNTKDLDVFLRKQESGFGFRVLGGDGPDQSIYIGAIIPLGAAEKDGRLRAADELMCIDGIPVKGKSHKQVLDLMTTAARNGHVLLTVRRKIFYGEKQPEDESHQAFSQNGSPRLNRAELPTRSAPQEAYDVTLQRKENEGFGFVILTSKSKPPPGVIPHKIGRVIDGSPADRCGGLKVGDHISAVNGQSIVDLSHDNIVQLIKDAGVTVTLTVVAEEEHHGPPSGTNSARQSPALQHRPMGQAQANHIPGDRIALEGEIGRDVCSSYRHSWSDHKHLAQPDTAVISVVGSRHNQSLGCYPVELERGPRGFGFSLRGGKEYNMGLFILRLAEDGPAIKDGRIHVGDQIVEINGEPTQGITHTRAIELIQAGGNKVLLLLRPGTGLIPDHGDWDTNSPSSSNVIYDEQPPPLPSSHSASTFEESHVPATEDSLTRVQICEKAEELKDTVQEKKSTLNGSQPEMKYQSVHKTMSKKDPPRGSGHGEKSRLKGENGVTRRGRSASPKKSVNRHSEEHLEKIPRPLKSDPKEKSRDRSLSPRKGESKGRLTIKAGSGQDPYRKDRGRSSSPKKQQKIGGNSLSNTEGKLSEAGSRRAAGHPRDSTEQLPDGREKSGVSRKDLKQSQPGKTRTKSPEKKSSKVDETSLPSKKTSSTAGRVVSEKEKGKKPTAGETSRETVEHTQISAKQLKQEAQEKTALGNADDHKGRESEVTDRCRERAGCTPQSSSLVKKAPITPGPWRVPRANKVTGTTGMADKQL
UniProt Q9DCH4, whole entry: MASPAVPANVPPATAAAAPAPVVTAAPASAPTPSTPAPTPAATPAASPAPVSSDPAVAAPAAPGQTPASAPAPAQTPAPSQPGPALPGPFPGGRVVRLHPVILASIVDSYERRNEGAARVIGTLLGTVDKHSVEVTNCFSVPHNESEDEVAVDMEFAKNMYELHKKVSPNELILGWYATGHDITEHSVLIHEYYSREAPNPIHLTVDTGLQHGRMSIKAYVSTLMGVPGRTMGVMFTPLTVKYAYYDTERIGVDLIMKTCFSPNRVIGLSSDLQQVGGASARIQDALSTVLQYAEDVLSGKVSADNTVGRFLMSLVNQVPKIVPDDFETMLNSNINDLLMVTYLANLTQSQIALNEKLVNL

Compound: CN[C@@H]1C[C@H]2O[C@@](C)([C@@H]1OC)n1c3ccccc3c3c4c(c5c6ccccc6n2c5c31)C(=O)NC4 [staurosporine]
Assay: log2 fold change of pooled soluble protein (PISA), ligand vs vehicle (log2 ratio); higher = more thermally stabilized
Conditions: ligand concentration: 20 uM; assay format: PISA pool 52.9/55.5/58.6 C

Target	log2 fold change of pooled soluble protein
UniProt Q9JHQ5	0.204
UniProt Q9DCC7	-0.0816
UniProt Q9DCD0	0.0176
UniProt Q9JJX6	-0.0113
UniProt Q9JI46	-0.0484
UniProt Q9EP96	0.102
UniProt Q9ER69	-0.0167
UniProt Q9ESW8	0.267
UniProt Q9JIL4	0.00623
UniProt Q9ERY9	-0.185
UniProt Q9JHS4	-0.0428
UniProt Q9DCM2	0.406
UniProt Q9JIX8	-0.0342
UniProt Q9JKF1	0.0488
UniProt Q9JIF0	0.145
UniProt Q9QXT0	0.00402
UniProt Q9EPU0	-0.0242
UniProt Q9JKC6	0.0863

Target	log2 fold change of pooled soluble protein
UniProt Q9JJL8	0.322
UniProt Q9DCS3	0.154
UniProt Q9JKR6	0.0413
UniProt Q9QY24	-0.00528
UniProt Q9JJ48	-0.389
UniProt Q9DD06	-0.0017
UniProt Q9QYH6	0.0236
UniProt Q9JHS3	-0.0419
UniProt Q9JKN1	0.221
UniProt Q9DCL9	-0.0731
UniProt Q9JLH8	0.061
UniProt Q9QY36	0.274
UniProt Q9JMG7	0.0239
UniProt Q9QXD8	0.00418
UniProt Q9JM62	-0.121
UniProt Q9JM13	0.0652
UniProt Q9EQJ9	0.0781
UniProt Q9DCH4	-0.0835

For convenience, part of the list above.
Target	log2 fold change of pooled soluble protein
UniProt Q9JJ48	-0.389
UniProt Q9DD06	-0.0017
